Assay results reported in PubChem BioAssay AID2685 (National Center for Advancing Translational Sciences (NCATS), 2010).
This is one part of the list. These are further read-outs of the screen, such as a control signal, another cell line or another target. No call is given for them. The list favours compounds with an active or inconclusive main result. Words in brackets tell the shape of the fitted curve; partial curves, single points and poor fits give uncertain potencies.

Assay: qHTS Assay for Lipid Storage Modulators in Drosophila S3 Cells;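 on cell number change: cells counted by Cell Tracker Red CMTPX staining in the red channel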
Conditions: BODIPY lipid droplet fluorescence, 18-24 h; for cell number change: measured here: cell count max response, cells fed with added oleic acid
Outline: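 Laser-scanning cytometry quantifies lipid droplet accumulation (500–530 nm total intensity; droplet/cell object ratio) in oleic acid-fed (400 uM added) Drosophila S3 cells treated with a concentration series. 20 uM Triacsin C defined 100% inhibition.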

[1] = measured here: lipid fluorescence (Fed channel) AC50, cells fed with added oleic acid
[2] = measured here: cell number channel AC50, cells fed with added oleic acid

SMILES | cell number change [%] | AC50 [1] | AC50 [2]
C#Cc1ccc(CN2CCC(C(=O)Nc3ccc(Oc4ccccc4)nc3)CC2)cc1 | -5.67 | 29.1 µM [falling, single point] | –
Cc1ccc(NC(=O)[C@@H]2CCCN2C(=O)[C@@H]2Cc3ccccc3CN2)c(C)c1 | -1.61 | 16.4 µM [rising, single point] | –
C/C(N)=C(/C#N)C(=O)COC(=O)c1cc(-c2ccc(C)cc2)nc2ccccc12 | -11.3 | 6.51 µM [rising, partial curve, poor fit] | –
CN(C(=O)CSc1nc(-c2ccc(F)cc2)cs1)C1CCS(=O)(=O)C1 (configuration not stated) | -30.5 | 0.0058 µM [falling, full curve, poor fit] | –
COc1ccc(NC(=O)CN(C)C(=O)COc2ccccc2Cc2ccccc2)cc1 | -11.5 | 0.00651 µM [rising, full curve, poor fit] | –
COCCNC(=O)/C(C#N)=C/C=C/c1ccccc1[N+](=O)[O-] | -21.2 | – | 0.00517 µM [rising, full curve, poor fit]
COc1ccc(C2C(C(C)=O)=C(C)Nc3ncnn32)cc1OC (configuration not stated) | – | 5.8 µM [falling, single point] | –
Cc1ccc(-c2cc(C(=O)N/N=C/C=C/c3ccco3)c3ccccc3n2)cc1C | -14.5 | – | –
CCOc1ccc(CN(C)C(=O)CCl)cc1 | -36.4 | – | –
COC(=O)CSc1nnc(NC(=O)C2CC(=O)N(c3ccc(F)cc3)C2)s1 (configuration not stated) | -6.94 | – | –
COCCn1c(C)cc(O)c(C(=O)Nc2cccc(Cl)c2)c1=O | -16.2 | 2.91 µM [falling, full curve] | –
O=C1OC(c2ccccc2)=C/C1=C/N1CCOCC1 | -16.7 | 29.1 µM [rising, single point] | –
Cc1ccc(S(=O)(=O)N2CCN(C(=O)COC(=O)CCOc3ccccc3C)CC2)cc1 | 2.61 | 9.2 µM [falling, partial curve, poor fit] | –
COc1ccc(NC(=O)c2ccc([N+](=O)[O-])o2)cc1 | -54.4 | 0.291 µM [falling, partial curve, poor fit] | 29.1 µM [falling, single point]
CN(C)c1cccc(C(=O)NCc2ccccc2)c1 | 46.9 | 6.51 µM [rising, partial curve, poor fit] | –
COC(=O)c1coc(-c2ccc(C)cc2)c1C(=O)OC | 74.1 | – | 20.6 µM [rising, partial curve]
COc1ccc(OCCN2CCN(C(=O)c3ccc(OC)c(OC)c3)CC2)cc1 | -12.4 | – | –
CC(C)Oc1cccc(C(=O)C2CCCN(C(=O)c3cc(C4CC4)[nH]n3)C2)c1 (configuration not stated) | – | 4.11 µM [rising, partial curve] | –
Cc1cccc(NC(=O)Cc2ccc(F)cc2)c1 | -2.5 | 13 µM [rising, partial curve] | –
O=C(Nc1ccc([N+](=O)[O-])cc1)c1cncc(Br)c1 | -9.19 | – | –
O=C(/C=C/c1ccccc1)NC(NC(=S)Nc1ccc(C(=O)O)cc1)C(Cl)(Cl)Cl (configuration not stated) | -3.69 | 0.13 µM [falling, full curve, poor fit] | –

SMILES | cell number change [%] | AC50 [1] | AC50 [2]
Clc1cc(Br)ccc1OCCOCCN1CCCC1 | 5.25 | 29.1 µM [rising, single point] | –
Cc1ccccc1/C=N\NC(=O)c1csnn1 | 16.7 | – | –
Cc1ccc(/C=N\Nc2nc3ccc(Cl)cc3[nH]2)o1 | 55.9 | 8.2 µM [rising, partial curve] | 3.26 µM [rising, full curve]
N/C(=N\OC(=O)CCCc1ccccc1)c1ccccc1Cl | 0.88 | 0.00731 µM [falling, full curve, poor fit] | –
O=C(O)c1ccccc1NC(=O)C1C2C=CC(C2)C1C(=O)O (configuration not stated) | -5.74 | – | –
CCN1CCN(C(=S)c2ccc(OCC(=O)NCc3ccccc3)cc2)CC1 | -24.1 | 29.1 µM [falling, single point] | –
C=C(C)COc1ccc2c(CC)cc(=O)oc2c1C | 2.93 | 29.1 µM [rising, single point] | 6.51 µM [rising, single point]
C=CCc1ccccc1OCCSc1nc2ccc([N+](=O)[O-])cc2s1 | -10.3 | 13 µM [rising, partial curve] | –
O=C(NC(=S)Nc1ccccc1O)c1cccnc1 | 7.66 | 0.82 µM [rising, full curve, poor fit] | –
CCOC(=O)C1CCCN(C2CC(=O)N(c3ccc(C)cc3)C2=O)C1 (configuration not stated) | 1.32 | – | –
COc1cc(C(=O)NCCc2ccccc2)ccc1OCC(=O)N1CCOCC1 | -5.44 | 0.411 µM [falling, partial curve, poor fit] | –
CC(=O)c1ccc(Cc2ccc(C(C)=O)cc2)cc1 | 57.1 | 0.116 µM [rising, full curve, poor fit] | –
Cc1cc(=O)[nH]c(SCC(=O)Nc2nc(-c3ccccc3)c(-c3ccccc3)o2)n1 | -9.11 | – | –
O=C(O)c1ccc(S(=O)(=O)N2CCC(n3nnc4cc(C(F)(F)F)ccc43)CC2)cc1 | 2.56 | – | –
O=C1CCC(C(=O)N2CCCC(C(=O)c3ccc4ccccc4c3)C2)=NN1 (configuration not stated) | -5.87 | 29.1 µM [falling, partial curve, poor fit] | –
O=C(Nc1ncc2c(n1)-c1ccccc1CC2)c1cccs1 | 0.913 | – | 6.51 µM [rising, partial curve, poor fit]
COc1ccc(-c2nc(C#N)c(N3CCCCCC3)o2)cc1OC | 1.7 | – | –
O=C(NNC(=S)NCC1CCCO1)c1cccc(S(=O)(=O)N2CCOCC2)c1 (configuration not stated) | -32.7 | 2.31 µM [falling, full curve] | 2.06 µM [falling, full curve]
Cc1sc(NC(=O)CSc2nnc(CCNC(=O)c3cccs3)n2C)nc1-c1ccccc1 | -43 | 10.3 µM [falling, partial curve] | 9.2 µM [falling, partial curve]
O=C(Nc1cccc(S(=O)(=O)N2CCCCC2)c1)C1CC(=O)N(Cc2ccco2)C1 (configuration not stated) | 12.3 | 18.4 µM [rising, single point] | –
O=C(O)CC(NC(=O)Cc1ccccc1)c1cc([N+](=O)[O-])ccc1Cl (configuration not stated) | -34.6 | 13 µM [falling, partial curve] | –

SMILES | cell number change [%] | AC50 [1] | AC50 [2]
Cn1c(SCC(=O)NCc2cccs2)nnc1-c1cccs1 | -3.2 | 0.82 µM [falling, full curve, poor fit] | –
CSc1ccc(CN(C)C(=O)CSCC(=O)Nc2ccc(C)cc2)cc1 | -18.6 | 5.8 µM [falling, full curve, poor fit] | –
CCCCS(=O)Cc1ccccc1 (configuration not stated) | -11.9 | 23.1 µM [falling, partial curve] | –
Cc1ccc2c(c1)nnn2C1CCN(C(=O)C2CCCCC2)CC1 | 57.5 | 2.31 µM [rising, full curve, poor fit] | 23.1 µM [rising, partial curve, poor fit]
CCn1nc(NC(=O)C(C)(C)C)c2cc3cccc(C)c3nc21 | – | 1.64 µM [falling, full curve, poor fit] | –
O=C(COc1ccccc1)OCc1cc(-c2ccco2)on1 | 7.34 | 14.6 µM [rising, partial curve, poor fit] | –
Cc1ccnc(NC(=O)CCC(=O)N(CC(=O)NC2CCCCC2)c2cccc(C)c2C)c1 | 8.79 | 0.92 µM [rising, full curve] | –
O=C(CSc1nc2ccccc2n1Cc1ccccc1)N/N=C/c1ccco1 | – | 0.651 µM [rising, single point] | –
Cc1ccnc2nc(C(=O)NCc3ccccc3)nn12 | 3.96 | 29.1 µM [falling, single point] | –
Cc1oc(C(C)(C)C)cc1C(=O)N1CCN(c2ccc(C(F)(F)F)cn2)CC1 | -4.49 | 0.00461 µM [falling, full curve, poor fit] | –
O=C(CCCN1C(=O)S/C(=C/C=C/c2ccccc2)C1=O)Nc1ccc(C(=O)O)cc1 | -18.9 | 29.1 µM [falling, single point] | –
CCOC(=O)c1sc(-c2cccs2)nc1C | -3.75 | 0.164 µM [falling, full curve, poor fit] | 0.116 µM [falling, full curve, poor fit]
CN(C)c1ccc(C(=O)Nc2nnc(-c3ccc(Cl)cc3)o2)cc1 | -27.2 | 29.1 µM [falling, single point] | –
Cc1ccc2oc3c(c(=O)c2c1)C(c1cccc(Br)c1)N(Cc1ccco1)C3=O (configuration not stated) | 14.5 | 0.517 µM [rising, full curve, poor fit] | –
COc1ccc(C)cc1NC(=O)C(OC(=O)CNC(=O)c1ccc(Oc2ccccc2)cc1)c1ccccc1 (configuration not stated) | 4.4 | – | –
CN(C)CC(=O)Nc1nc(-c2ccccc2)cs1 | 8.98 | 0.651 µM [falling, partial curve, poor fit] | –
C=CCc1ccccc1OCC(O)CN1CCN(c2ccccc2OC)CC1 (configuration not stated) | -43.8 | 16.4 µM [falling, single point] | 16.4 µM [falling, partial curve]
O=C1C(=O)N(Cc2ccccc2)C(c2cccc(O)c2)/C1=C(\O)c1ccc2c(c1)OCCO2 (configuration not stated) | 14.5 | 0.206 µM [falling, full curve] | –
N#Cc1ccccc1OCC(=O)Nc1nnc(C2CC2)s1 | -13.5 | 0.103 µM [rising, full curve, poor fit] | –
Cc1cccc(OCC(=O)NNC(=O)c2ccccc2OCc2c(C)noc2C)c1 | 8.58 | 0.92 µM [rising, partial curve] | 6.51 µM [rising, single point]

Reprinted from the listing (three entries):
SMILES | cell number change [%] | AC50 [1] | AC50 [2]
O=C1C(=O)N(Cc2ccccc2)C(c2cccc(O)c2)/C1=C(\O)c1ccc2c(c1)OCCO2 (configuration not stated) | 14.5 | 0.206 µM [falling, full curve] | –
N#Cc1ccccc1OCC(=O)Nc1nnc(C2CC2)s1 | -13.5 | 0.103 µM [rising, full curve, poor fit] | –
Cc1cccc(OCC(=O)NNC(=O)c2ccccc2OCc2c(C)noc2C)c1 | 8.58 | 0.92 µM [rising, partial curve] | 6.51 µM [rising, single point]
